Measurements as given in the supplement of paper PMC10849652.
The list shows a part of the results.

The chains behind the UniProt entries cited, without tags or fusion partners. Where a name states a change or a piece, a line headed by the entry shows the natural chain unless it says otherwise.
UniProt P58546, whole entry, looked up: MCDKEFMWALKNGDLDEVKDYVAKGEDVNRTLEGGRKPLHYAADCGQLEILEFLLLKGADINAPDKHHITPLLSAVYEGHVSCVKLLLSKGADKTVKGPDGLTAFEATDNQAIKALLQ
UniProt P43246, whole entry, looked up: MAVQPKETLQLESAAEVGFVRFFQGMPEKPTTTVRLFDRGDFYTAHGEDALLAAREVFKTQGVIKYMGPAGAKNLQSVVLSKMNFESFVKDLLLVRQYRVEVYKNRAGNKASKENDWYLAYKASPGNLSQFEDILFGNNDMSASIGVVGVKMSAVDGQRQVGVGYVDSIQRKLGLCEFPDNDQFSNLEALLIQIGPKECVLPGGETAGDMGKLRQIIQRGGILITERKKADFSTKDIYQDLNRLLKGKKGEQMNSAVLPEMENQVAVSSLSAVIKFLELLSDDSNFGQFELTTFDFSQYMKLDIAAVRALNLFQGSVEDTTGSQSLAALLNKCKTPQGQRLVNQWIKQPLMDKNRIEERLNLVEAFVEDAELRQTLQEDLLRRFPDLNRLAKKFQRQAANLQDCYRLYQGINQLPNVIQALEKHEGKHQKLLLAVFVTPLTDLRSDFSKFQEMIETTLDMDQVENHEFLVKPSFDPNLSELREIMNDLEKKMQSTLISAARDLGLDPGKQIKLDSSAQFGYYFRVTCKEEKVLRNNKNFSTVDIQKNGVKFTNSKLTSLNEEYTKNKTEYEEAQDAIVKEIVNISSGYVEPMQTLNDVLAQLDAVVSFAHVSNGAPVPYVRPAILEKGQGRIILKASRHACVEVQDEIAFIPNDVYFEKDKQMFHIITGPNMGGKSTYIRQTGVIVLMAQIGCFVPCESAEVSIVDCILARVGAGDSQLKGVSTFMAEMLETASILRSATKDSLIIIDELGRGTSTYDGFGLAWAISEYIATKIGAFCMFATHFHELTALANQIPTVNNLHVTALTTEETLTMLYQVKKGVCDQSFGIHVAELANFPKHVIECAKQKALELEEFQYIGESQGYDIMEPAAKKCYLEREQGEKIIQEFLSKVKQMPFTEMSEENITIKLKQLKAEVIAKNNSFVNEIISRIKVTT
UniProt Q9H019: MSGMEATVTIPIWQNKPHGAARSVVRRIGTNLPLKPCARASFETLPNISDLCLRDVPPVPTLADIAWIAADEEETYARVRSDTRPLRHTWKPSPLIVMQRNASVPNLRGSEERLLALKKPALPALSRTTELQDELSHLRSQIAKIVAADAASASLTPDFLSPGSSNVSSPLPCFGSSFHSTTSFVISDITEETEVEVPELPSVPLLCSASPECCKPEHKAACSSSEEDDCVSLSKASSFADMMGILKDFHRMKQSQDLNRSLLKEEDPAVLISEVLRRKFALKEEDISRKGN
UniProt Q96DH6: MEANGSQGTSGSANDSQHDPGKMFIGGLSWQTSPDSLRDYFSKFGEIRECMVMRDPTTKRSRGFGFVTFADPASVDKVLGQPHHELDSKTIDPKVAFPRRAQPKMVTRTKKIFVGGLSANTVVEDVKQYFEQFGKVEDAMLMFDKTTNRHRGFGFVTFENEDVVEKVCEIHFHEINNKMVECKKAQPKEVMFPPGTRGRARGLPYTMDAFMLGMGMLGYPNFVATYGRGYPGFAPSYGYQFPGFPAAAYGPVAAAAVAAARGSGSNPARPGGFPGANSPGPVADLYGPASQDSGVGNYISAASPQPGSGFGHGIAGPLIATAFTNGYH

What was measured:
Experiment in all cases: log2 fold change, soluble protein after heating vs DMSO (PISA); higher = thermal stabilisation; K562 lysate, 10 uM; active = over 0.2 and 3.5 SD of the protein, either way, in both replicates (recomputed)
vemurafenib = compound: CCCS(=O)(=O)Nc1ccc(F)c(C(=O)c2c[nH]c3ncc(-c4ccc(Cl)cc4)cc23)c1F [vemurafenib]
Outline: (§1)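 The values are log-two fold changes in thermal stability compared with solvent controls and come from duplicates. They were obtained by TMTpro 16plex LC-MS/MS, with channel sums equalised, on the supernatant after 21,000xg for 90 min. That supernatant came from crude K562 extract at 1 mg/mL protein treated with 10 μM compound for 30 min, heated for 3 min across 48°C-58°C, pooled and brought to 0.5% NP-40 at 4°C.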

[1] = compound: CCCS(=O)(=O)Nc1ccc(F)c(C(=O)c2c[nH]c3ncc(Cl)cc23)c1F
Outline: as §1

barasertib = compound: CCN(CCCOc1ccc2c(Nc3cc(CC(=O)Nc4cccc(F)c4)[nH]n3)ncnc2c1)CCOP(=O)(O)O [barasertib]
Outline: as §1

[2] = compound: CC[C@@H]1C(=O)N(C)c2cnc(Nc3ccc(C(=O)NC4CCN(C)CC4)cc3OC)nc2N1C1CCCC1
Outline: as §1

volasertib = compound: CC[C@@H]1C(=O)N(C)c2cnc(Nc3ccc(C(=O)N[C@H]4CC[C@H](N5CCN(CC6CC6)CC5)CC4)cc3OC)nc2N1C(C)C [volasertib]
Outline: as §1

[3] = compound: CCn1c(C(=O)N(C2CC2)C2CC2)cc2c3c(ncn3C)c(Nc3cc(C)n(C)n3)nc21
Outline: as §1

[4] = compound: CCn1cc(-c2ccnc3[nH]c(-c4cccc(CN(C)C)c4)cc23)c(-c2ccc(NC(=O)N(C)C)cc2)n1
Outline: as §1

[5] = compound: CN1CCC(CNc2ccc3ncc(-c4cccc(OC(F)(F)F)c4)n3n2)CC1
Outline: as §1

saracatinib = compound: CN1CCN(CCOc2cc(OC3CCOCC3)c3c(Nc4c(Cl)ccc5c4OCO5)ncnc3c2)CC1 [saracatinib]
Outline: as §1

sotrastaurin = compound: CN1CCN(c2nc(C3=C(c4c[nH]c5ccccc45)C(=O)NC3=O)c3ccccc3n2)CC1 [sotrastaurin]
Outline: as §1

alvocidib = compound: CN1CC[C@H](c2c(O)cc(O)c3c(=O)cc(-c4ccccc4Cl)oc23)[C@H](O)C1 [alvocidib]
Outline: as §1

Tubastatin A = compound: CN1CCc2c(c3ccccc3n2Cc2ccc(C(=O)NO)cc2)C1 [Tubastatin A]
Outline: as §1

[6] = compound: CNC(=O)C1=CC=CC=C1NC2=NC(=NC=C2Cl)NC3=C(C=C(C=C3)N4CCOCC4)OC
Outline: as §1

defactinib = compound: CNC(=O)c1ccc(Nc2ncc(C(F)(F)F)c(NCc3nccnc3N(C)S(C)(=O)=O)n2)cc1 [defactinib]
Outline: as §1

[7] = compound: CNc1nc(-c2ccc3c(N)n[nH]c3c2)cc(N2C[C@@H](C(=O)NC3CCCCC3)CC[C@H]2C)n1
Outline: as §1

encorafenib = compound: COC(=O)N[C@@H](C)CNc1nccc(-c2cn(C(C)C)nc2-c2cc(Cl)cc(NS(C)(=O)=O)c2F)n1 [encorafenib]
Outline: as §1

[8] = compound: COC(=O)[C@H](CCSC)NC(=O)C1=C(C=C(C=C1)NC[C@H](CS)N)C2=CC=CC=C2
Outline: as §1

alisertib = compound: COc1cc(Nc2ncc3c(n2)-c2ccc(Cl)cc2C(c2c(F)cccc2OC)=NC3)ccc1C(=O)O [alisertib]
Outline: as §1

[9] = compound: COc1cc2nc(-c3cc(F)ccc3O)nc(N[C@@H]3CNC[C@H]3C(C)(C)O)c2cc1OC
Outline: as §1

gefitinib = compound: COc1cc2ncnc(Nc3ccc(F)c(Cl)c3)c2cc1OCCCN1CCOCC1 [gefitinib]
Outline: as §1

Measured: log2 fold change

MTPN (UniProt P58546)
inactive: vemurafenib -0.034 | [1] -0.018 | barasertib 0.119 | [2] 0.037 | volasertib 0.096 | [3] 0.087 | [4] 0.156 | [5] -0.171 | saracatinib 0.007 | sotrastaurin -0.043 | alvocidib 0.267 | Tubastatin A 0.081 | [6] 0.068 | defactinib 0.134 | [7] 0.014 | encorafenib -0.023 | [8] 0.014 | alisertib -0.008 | [9] -0.031 | gefitinib -0.142

MRPL49 (UniProt Q13405)
inactive: vemurafenib 0.048 | [1] -0.003 | barasertib 0.043 | [2] -0.024 | volasertib -0.007 | [3] -0.015 | [4] -0.016 | [5] -0.124 | saracatinib 0.029 | sotrastaurin -0.023 | alvocidib 0.035 | Tubastatin A 0.031 | [6] 0.004 | defactinib -0.003 | [7] -0.029 | encorafenib 0.006 | [8] -0.029 | alisertib -0.013 | [9] -0.03 | gefitinib -0.046

MRPL57 (UniProt Q9BQC6)
inactive: vemurafenib 0.032 | [1] -0.007 | barasertib -0.007 | [2] -0.017 | volasertib -0.039 | [3] -0.04 | [4] 0.014 | [5] -0.048 | saracatinib 0.042 | sotrastaurin -0.027 | alvocidib 0.006 | Tubastatin A 0.069 | [6] -0.077 | defactinib -0.115 | [7] 0.14 | encorafenib 0.02 | [8] 0.123 | alisertib -0.012 | [9] 0.002 | gefitinib -0.034

MUC1, A0A087WWM1
inactive: vemurafenib 0.067 | [1] 0.038 | barasertib -0.013 | [2] 0.015 | volasertib 0.033 | [3] -0.031 | [4] -0.004 | [5] -0.029 | saracatinib 0.115 | sotrastaurin 0.063 | alvocidib -0.005 | Tubastatin A -0.019 | [6] -0.009 | defactinib 0.004 | [7] -0.046 | encorafenib -0.039 | [8] 0.008 | alisertib -0.05 | [9] 0.04 | gefitinib -0.01

2 entries picked at random from the list so far:
MRPL57 (UniProt Q9BQC6)
inactive: vemurafenib 0.032 | [1] -0.007 | barasertib -0.007 | [2] -0.017 | volasertib -0.039 | [3] -0.04 | [4] 0.014 | [5] -0.048 | saracatinib 0.042 | sotrastaurin -0.027 | alvocidib 0.006 | Tubastatin A 0.069 | [6] -0.077 | defactinib -0.115 | [7] 0.14 | encorafenib 0.02 | [8] 0.123 | alisertib -0.012 | [9] 0.002 | gefitinib -0.034

MRPL49 (UniProt Q13405)
inactive: vemurafenib 0.048 | [1] -0.003 | barasertib 0.043 | [2] -0.024 | volasertib -0.007 | [3] -0.015 | [4] -0.016 | [5] -0.124 | saracatinib 0.029 | sotrastaurin -0.023 | alvocidib 0.035 | Tubastatin A 0.031 | [6] 0.004 | defactinib -0.003 | [7] -0.029 | encorafenib 0.006 | [8] -0.029 | alisertib -0.013 | [9] -0.03 | gefitinib -0.046

(list continues)

MTHFD1L (UniProt B7ZM99)
inactive: vemurafenib 0.01 | [1] 0 | barasertib -0.033 | [2] -0.111 | volasertib -0.002 | [3] 0.019 | [4] -0.013 | [5] -0.056 | saracatinib 0.004 | sotrastaurin 0.036 | alvocidib 0.029 | Tubastatin A -0.084 | [6] 0.02 | defactinib 0.034 | [7] -0.01 | encorafenib -0.041 | [8] 0.072 | alisertib 0.032 | [9] 0.009 | gefitinib -0.007

MRPS27 isoform 2 (UniProt Q92552)
inactive: vemurafenib 0.053 | [1] 0.022 | barasertib -0.003 | [2] -0.092 | volasertib -0.034 | [3] 0.017 | [4] -0.148 | [5] 0.04 | saracatinib 0.013 | sotrastaurin 0.028 | alvocidib -0.012 | Tubastatin A -0.047 | [6] 0.008 | defactinib 0.032 | [7] 0.05 | encorafenib -0.018 | [8] 0.003 | alisertib -0.022 | [9] 0.014 | gefitinib -0.067

MSH2 (UniProt P43246)
inactive: vemurafenib -0.014 | [1] 0.001 | barasertib 0.007 | [2] -0.033 | volasertib -0.068 | [3] 0.038 | [4] 0.003 | [5] -0.055 | saracatinib 0 | sotrastaurin 0.032 | alvocidib 0.026 | Tubastatin A -0.105 | [6] -0.017 | defactinib 0.023 | [7] 0.007 | encorafenib 0.011 | [8] 0.061 | alisertib -0.011 | [9] -0.002 | gefitinib -0.007

MTFR1L (UniProt Q9H019)
inactive: vemurafenib 0.019 | [1] 0.023 | barasertib -0.078 | [2] 0.062 | volasertib -0.066 | [3] 0.049 | [4] -0.184 | [5] 0.084 | saracatinib 0.028 | sotrastaurin 0.016 | alvocidib -0.046 | Tubastatin A -0.237 | [6] 0.081 | defactinib -0.05 | [7] 0.032 | encorafenib -0.021 | [8] 0.009 | alisertib 0.022 | [9] -0.068 | gefitinib -0.039

MRPS6 (UniProt P82932)
inactive: vemurafenib 0.002 | [1] -0.013 | barasertib -0.013 | [2] 0.013 | volasertib 0.049 | [3] 0.035 | [4] -0.037 | [5] -0.01 | saracatinib 0.01 | sotrastaurin 0.036 | alvocidib 0.003 | Tubastatin A -0.045 | [6] 0.017 | defactinib -0.044 | [7] 0.059 | encorafenib 0.019 | [8] -0.206 | alisertib 0.026 | [9] 0.038 | gefitinib 0.037

MRPS35 (UniProt P82673)
inactive: vemurafenib 0.018 | [1] 0.007 | barasertib 0.007 | [2] -0.001 | volasertib -0.031 | [3] -0.003 | [4] -0.01 | [5] -0.036 | saracatinib 0.002 | sotrastaurin 0.058 | alvocidib 0.022 | Tubastatin A 0.021 | [6] -0.023 | defactinib 0.002 | [7] 0.061 | encorafenib 0.006 | [8] -0.03 | alisertib 0.037 | [9] -0.023 | gefitinib 0.039

MRPL32 (UniProt Q9BYC8)
inactive: vemurafenib 0.003 | [1] 0.008 | barasertib -0.025 | [2] 0.112 | volasertib 0.014 | [3] -0.018 | [4] 0.028 | [5] -0.029 | saracatinib 0.03 | sotrastaurin -0.082 | alvocidib -0.017 | Tubastatin A 0.021 | [6] 0.037 | defactinib 0.006 | [7] 0.129 | encorafenib 0.028 | [8] -0.167 | alisertib -0.05 | [9] -0.017 | gefitinib -0.068

MRPS12 (UniProt O15235)
inactive: vemurafenib 0.062 | [1] 0.035 | barasertib 0.003 | [2] 0.045 | volasertib 0.011 | [3] 0.001 | [4] -0.038 | [5] 0.001 | saracatinib 0.016 | sotrastaurin 0.028 | alvocidib -0.015 | Tubastatin A 0.026 | [6] -0.021 | defactinib 0.015 | [7] 0.067 | encorafenib 0.011 | [8] -0.168 | alisertib -0.027 | [9] -0.053 | gefitinib -0.032

MSI2 (UniProt Q96DH6)
inactive: vemurafenib 0.039 | [1] -0.007 | barasertib 0.009 | [2] 0.016 | volasertib -0.023 | [3] 0.13 | [4] -0.014 | [5] 0.002 | saracatinib -0.015 | sotrastaurin -0.002 | alvocidib 0.035 | Tubastatin A -0.082 | [6] -0.04 | defactinib 0.076 | [7] -0.012 | encorafenib 0.144 | [8] -0.023 | alisertib 0.026 | [9] -0.012 | gefitinib -0.031

MRPS31 (UniProt Q92665)
inactive: vemurafenib 0.043 | [1] -0.001 | barasertib -0.011 | [2] 0.041 | volasertib -0.004 | [3] -0.026 | [4] -0.046 | [5] 0.034 | saracatinib 0.014 | sotrastaurin 0.021 | alvocidib -0.023 | Tubastatin A 0.002 | [6] -0.029 | defactinib 0.024 | [7] 0.018 | encorafenib 0.006 | [8] -0.02 | alisertib 0.007 | [9] -0.017 | gefitinib -0.014

MRPL44 (UniProt Q9H9J2)
inactive: vemurafenib 0.018 | [1] 0.033 | barasertib 0.122 | [2] -0.03 | volasertib -0.004 | [3] -0.039 | [4] -0.021 | [5] 0.025 | saracatinib -0.003 | sotrastaurin -0.075 | alvocidib -0.032 | Tubastatin A -0.012 | [6] 0.046 | defactinib 0.019 | [7] 0.015 | encorafenib -0.053 | [8] 0.014 | alisertib -0.006 | [9] -0.035 | gefitinib 0.058
